## Results from one PubChem assay

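Control-channel Italica luciferase signal in doxycycline-induced 293T-iDUX4 cells, given as percent activity after a 24-hour treatment. The test concentration is not given here. Percent change in the Italica control signal; more negative values mean stronger inhibition, which points to nonspecific, tet-on or cytotoxic effects.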

Values are in %. Common to all entries: measured here: Italica tet-on control reporter. Part of the compounds only, not a random draw; the main read-out is not listed here.

For COc1cccc(S(=O)(=O)Nc2ccc3c(c2)[C@H]2C[C@@H](CC(=O)NCc4ccc(Cl)cc4)O[C@@H](CO)[C@H]2O3)c1 the result was activity change -17.65%.
For O=C(C[C@@H]1CC[C@@H]2[C@H](COC[C@H](O)CN2Cc2ccc(Cl)cc2)O1)NCc1cccc(F)c1 the result was activity change 4.12%.
For O=C(C[C@@H]1C[C@H]2c3cc(NC(=O)Nc4ccc(C(F)(F)F)cc4)ccc3O[C@H]2[C@H](CO)O1)NCc1ccccn1 the result was activity change -17.63%.
For O=C(C1CCC1)N1CCCCN2[C@@H](CO)[C@@H](c3ccc(-c4ccncc4)cc3)[C@@H]2C1 the result was activity change -25.6%.
For C[C@H]1CN([C@@H](C)CO)C(=O)c2c(c3ccccc3n2C)-c2ccccc2CO[C@H]1CN(C)Cc1ccc(C(F)(F)F)cc1 the result was activity change -69.92%.
For O=C(C[C@H]1CC[C@@H]2[C@H](COC[C@H](O)CN2Cc2cc(F)ccc2F)O1)NCc1ccc(Oc2ccccc2)cc1 the result was activity change -68.53%.
For C[C@H]1CN([C@@H](C)CO)C(=O)c2c(c3ccccc3n2C)-c2ccccc2CO[C@@H]1CN(C)C(=O)C1CC1 the result was activity change 2.18%.
For C[C@H](CO)N1C[C@H](C)[C@@H](CN(C)C(=O)Nc2ccc(F)cc2)OCc2ccccc2-c2c(n(C)c3ccccc23)C1=O the result was activity change -92.46%.
For C[C@H](NC(=O)C[C@@H]1CC[C@H]2[C@@H](COC[C@@H](O)CN2Cc2ccc(C(F)(F)F)cc2)O1)c1ccccc1 the result was activity change -9.195%.
For O=C(c1ccc2c(c1)OCO2)N1CC(=O)N2[C@H](C1)[C@H](c1ccc(C#Cc3ccccc3)cc1)[C@@H]2CO the result was activity change -16.71%.
For N#C[C@@H]1[C@@H](c2ccccc2C2=CCCCC2)[C@H](CO)N1C(=O)c1cccc(F)c1 the result was activity change -22.73%.
For COc1cccc(-c2ccc3c(c2)[C@H]2[C@H](CCN2S(=O)(=O)c2ccccc2OC)[C@@H](CO)N3C)c1 the result was activity change -63.49%.
For C[C@H](NC(=O)N(C)C[C@@H]1OCc2ccccc2-c2c(n(C)c3ccccc23)C(=O)N([C@H](C)CO)C[C@@H]1C)c1ccccc1 the result was activity change -74.03%.
For COc1cccc(-c2ccc([C@H]3[C@H](CO)N4CCCCN(C(=O)c5ccc6c(c5)OCO6)C[C@@H]34)cc2)c1 the result was activity change -38.48%.
For N#C[C@@H]1[C@@H](c2ccccc2C2=CCCCC2)[C@H](CO)N1C(=O)NC1CCCC1 the result was activity change -39.57%.
For O=C(c1ccccc1F)N1CC[C@@H]2[C@H](CO)Nc3ccc(-c4ccc(F)cc4)cc3[C@@H]21 the result was activity change -24.6%.
For COc1cccc(C(=O)Nc2ccc3c(c2)C(=O)N(C)[C@@H]2CC[C@@H](CC(=O)NCc4ccccc4F)O[C@H]2CO3)c1 the result was activity change -35.3%.
For O=C(Nc1ccc(F)cc1)N1CCCCN2[C@H](CO)[C@H](c3ccc(C#Cc4ccccc4)cc3)[C@H]2C1 the result was activity change -94.64%.
For CCCNC(=O)N1CC(=O)N2[C@H](CO)[C@@H](c3ccc(C#Cc4ccccc4)cc3)[C@@H]2C1 the result was activity change -17.86%.
For N#Cc1ccc(-c2ccc3c(c2)[C@H]2[C@H](CCN2C(=O)c2ccncc2)[C@H](CO)N3)cc1 the result was activity change -16.24%.
For N#C[C@H]1[C@@H](c2ccccc2-c2ccccc2)[C@@H](CO)N1C(=O)Cc1ccccc1 the result was activity change -3.811%.
For C[C@H]1CN([C@@H](C)CO)C(=O)c2c(c3ccccc3n2C)-c2ccccc2CO[C@H]1CN(C)Cc1ccc2c(c1)OCCN2C the result was activity change -7.43%.

Data taken from PubChem BioAssay AID1224904, deposited by Broad Institute (2016).